Data on 40 molecules can be found in PubChem BioAssay (NCATS).

This is one part of the list. Further columns of the screen follow, without active or inactive calls. The list favours compounds with an active or inconclusive main result. Words in brackets tell the shape of the fitted curve; partial curves, single points and poor fits give uncertain potencies.

The first experiment in a line: qHTS for identification of novel therapeutic agents for treatment of microphthalmiaassociated transcription factor (MiT) renal cell carcinoma (RCC) (AID 1963991). The settings on record: TFE3-RCC viability, CellTiter-Glo, 48 h; measured here: UOK145 Z-AUC; stronger effect = lower value. The method in brief: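 UOK109/UOK124/UOK145 (TFE3 fusions, three partners); 500 cells/well; MIPE v4.0, 1912 cpds, 11 conc.; 48 h, 37 C; CellTiter-Glo, 15 min RT; lum. Norm.: DMSO 100%, empty 0%.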
For orientation: qHTS replaces the single test concentration by a dilution series.
In the case of `COc1cccc([C@@H](C)NCCCc2ccccc2Cl)c1`, the z-score is 0.403.

For `Cc1cn(-c2cc(NC(=O)c3ccc(C)c(Nc4nccc(-c5cccnc5)n4)c3)cc(C(F)(F)F)c2)cn1`, the z-score was -0.445.

Turning to `CN(C)C(=O)c1ccc(S(=O)(=O)c2ccc(NC(=O)[C@@](C)(O)C(F)(F)F)c(Cl)c2)cc1`, the z-score amounted to 0.701.

`O=C(N[C@@H](c1ccccc1)[C@@H]1CCCCN1)c1cccc(C(F)(F)F)c1Cl` had a z-score of -0.146.

Take `O=C(O)c1ccc(Nc2ncc3c(n2)-c2ccc(Cl)cc2C(c2c(F)cccc2F)=NC3)cc1`: the z-score is 0.0351.

Regarding `CC(=O)Nc1nc(C)c(-c2ccc(Cl)c(S(=O)(=O)NCCO)c2)s1`, the z-score was -0.222.

As for `CN1c2ccccc2C(=O)N2CCc3c([nH]c4ccccc34)C21` (centres undefined), the z-score is 0.594.

As for `NC(=O)c1ccc(-c2nc(-c3ccc4c(c3)OCCO4)c(-c3ccccn3)[nH]2)cc1`, the z-score amounted to 0.624.

`N#CC(c1ccc(Cl)cc1)c1c(Cl)cc(-n2ncc(=O)[nH]c2=O)cc1Cl` (centres undefined) registered a z-score of 0.227.

As to `COc1cc(F)c(F)c(Nc2ccc(I)cc2F)c1NS(=O)(=O)C1(C[C@H](O)CO)CC1`, the z-score was determined as 0.88.

Regarding `CCc1cc(Nc2nccc(-c3c(-c4ccc(OC)c(C(=O)Nc5c(F)cccc5F)c4)nc4ccccn34)n2)c(OC)cc1N1CCC(N2CCN(S(C)(=O)=O)CC2)CC1`, the z-score came to 0.49.

As to `COc1cc(Oc2ccnc3cc(OC)c(OC)cc23)ccc1NC(=O)NC(C)c1nccs1` (centres undefined), the z-score was determined as 0.714.

`NS(=O)(=O)c1ccc(NC2=CC(=O)c3ccccc3C2=O)cc1` had a z-score of 0.346.

`Cc1ccc(C2=Nc3ccc(Cl)cc3OC2)cc1` yielded a z-score of 0.756.

Consider `CCn1c(-c2nonc2N)nc2cnc(Oc3cccc(NC(=O)c4ccc(OCCN5CCOCC5)cc4)c3)cc21`, for which the z-score is 0.368.

Consider `CC(C)(Cc1ccc2ccccc2c1)NC[C@@H](O)COc1cccc(Cl)c1C#N`, for which the z-score amounted to 0.58.

The molecule `COc1cc([C@@H]2c3cc4c(cc3[C@H](O)[C@H]3COC(=O)[C@H]23)OCO4)cc(OC)c1OC` displayed a z-score of -1.44.

Molecule `CC(O)(C#Cc1ccc2c(c1)N(c1nc(N)ncc1Cl)CC2)c1nccs1` (centres undefined) returned a z-score of -0.778.

Regarding `O=c1cc(-c2cccc3c2Sc2ccccc2S3)oc(N2CCOCC2)c1`, the z-score was determined as 0.485.

Molecule `O=C(NC[C@H](O)CO)c1ccncc1Nc1ccc(I)cc1F` had a z-score of 0.297.

With `CCCC1OC2C[C@@H]3[C@H]4CCC5=CC(=O)C=C[C@]5(C)[C@H]4C(O)C[C@]3(C)[C@]2(C(=O)CO)O1` (some centres undefined), the z-score is 0.763.

Still in this experiment, the particulars now being: TFE3-RCC viability, CellTiter-Glo, 48 h; measured here: UOK145 cell viability.
In the case of `CC(C)(O)c1cc2nc(-c3cnc(N)nc3)nc(N3CCOCC3)c2s1`, the AC50 was 132 nM [falling, full curve].

`O=C(N[C@@H](c1ccccc1)[C@@H]1CCCCN1)c1cccc(C(F)(F)F)c1Cl`: the AC50 is 37200 nM [falling, partial curve, poor fit].

As to `O=C(O)c1ccc(Nc2ncc3c(n2)-c2ccc(Cl)cc2C(c2c(F)cccc2F)=NC3)cc1`, the AC50 is 14800 nM [falling, partial curve].

For `CC(=O)Nc1nc(C)c(-c2ccc(Cl)c(S(=O)(=O)NCCO)c2)s1`, the AC50 was 5260 nM [falling, partial curve].

Regarding `CC(C)C[C@H](NC(=O)CNC(=O)c1cc(Cl)ccc1Cl)B1OC(=O)CC(CC(=O)O)(C(=O)O)O1` (some centres undefined), the AC50 was 83.3 nM [falling, full curve].

With `Nc1cc(C(F)(F)F)c(-c2cc(N3CCOCC3)nc(N3CCOCC3)n2)cn1`, the AC50 was 418 nM [falling, full curve].

For the molecule `Cn1cc(CNCC2CCN(c3ncc(C(=O)NO)cn3)CC2)c2ccccc21`, the AC50 was 662 nM [falling, full curve].

For the molecule `NC(=O)c1ccc(-c2nc(-c3ccc4c(c3)OCCO4)c(-c3ccccn3)[nH]2)cc1`, the AC50 is 18700 nM [falling, partial curve, poor fit].

For the molecule `N#CC(c1ccc(Cl)cc1)c1c(Cl)cc(-n2ncc(=O)[nH]c2=O)cc1Cl` (centres undefined), the AC50 is 29.6 nM [rising, full curve, poor fit].

Take `COc1ccc(C=Cc2cc(OC)c(OC)c(OC)c2)cc1NC(=O)[C@H](N)CO`: the AC50 is 5.26 nM [falling, full curve].

Turning to `O=C1c2ccccc2-[n+]2ccc3c([nH]c4ccccc43)c21`, the AC50 is 2090 nM [falling, full curve].

`Cc1ccc(C(=O)N(CCCN)[C@@H](c2oc3cc(Cl)ccc3c(=O)c2Cc2ccccc2)C(C)C)cc1`: the AC50 was 29600 nM [falling, partial curve, poor fit].

Take `Cc1cc(Nc2ncc3c(n2)N(C)C(=O)N(c2cc(NC(=O)c4cccc(C(F)(F)F)c4)ccc2C)C3)n(C)n1`: the AC50 was 662 nM [falling, full curve].

As for `COc1cc(Oc2ccnc3cc(OC)c(OC)cc23)ccc1NC(=O)NC(C)c1nccs1` (centres undefined), the AC50 was 26400 nM [falling, single point].

Regarding `COc1c(OCCCN2CCOCC2)ccc2c3n(c(=NC(=O)c4cnc(N)nc4)nc12)CCN3`, the AC50 is 2880 nM [falling, partial curve].

In the case of `CC(C)c1cnn2c(NCc3ccccc3)cc(N[C@@H](CO)[C@H](O)CO)nc12`, the AC50 was 264 nM [falling, full curve].

`CCC[C@H](Nc1nc(-c2ccc(NC(=O)NCC)c(OC)c2)ncc1C)c1cccnc1`: the AC50 is 37.2 nM [falling, full curve].

Take `Oc1cccc(-c2nc(N3CCOCC3)c3oc4ncccc4c3n2)c1`: the AC50 was 1080 nM [falling, full curve].

In the case of `c1ccc2c(-c3cnn4cc(-c5ccc(N6CCNCC6)cc5)cnc34)ccnc2c1`, the AC50 is 9350 nM [falling, partial curve, poor fit].

On to `CCn1c(-c2nonc2N)nc2cnc(Oc3cccc(NC(=O)c4ccc(OCCN5CCOCC5)cc4)c3)cc21`, for which the AC50 is 14800 nM [falling, partial curve].

Turning to `COc1cc([C@@H]2c3cc4c(cc3[C@H](O)[C@H]3COC(=O)[C@@H]23)OCO4)cc(OC)c1OC`, the half-maximal activity concentration (AC50) is 93.5 nM [falling, full curve].

In the case of `CC(C)n1nc(-c2ccc3oc(N)nc3c2)c2c(N)ncnc21`, the AC50 is 4.18 nM [falling, full curve].

`CC(C)C[C@H](NC(=O)[C@H](CCc1ccccc1)NC(=O)CN1CCOCC1)C(=O)N[C@@H](Cc1ccccc1)C(=O)N[C@@H](CC(C)C)C(=O)[C@@]1(C)CO1`: the AC50 was 66.2 nM [falling, full curve].

As to `CC(C)[C@H](C(=O)Nc1ccc(C(=O)NO)cc1)c1ccccc1`, the AC50 was 3720 nM [falling, full curve].

Take `Cn1c2ccccc2c2c3c(c4c5ccccc5n(CCC#N)c4c21)CNC3=O`: the AC50 was 5900 nM [falling, partial curve].

In the case of `CC(O)(C#Cc1ccc2c(c1)N(c1nc(N)ncc1Cl)CC2)c1nccs1` (centres undefined), the AC50 is 10500 nM [falling, partial curve].

For `NC(=O)Nc1cc(-c2cccc(F)c2)sc1C(=O)N[C@H]1CCCNC1`, the AC50 is 662 nM [falling, full curve].

Take `CCCC1OC2C[C@@H]3[C@H]4CCC5=CC(=O)C=C[C@]5(C)[C@H]4C(O)C[C@]3(C)[C@]2(C(=O)CO)O1` (some centres undefined): the AC50 is 526 nM [falling, partial curve, poor fit].

As a reminder, the AC50 is the concentration at which the activity in the assay is half-maximal.
